The list shows a part of the results.
compound: Cn1cc(-c2ccc3nnc(C(F)(F)c4ccc5ncccc5c4)n3n2)cn1; assay: log2 fold change, soluble protein after heating vs DMSO (PISA); higher = thermal stabilisation; K562 cells, 10 uM, 30 min; active = over 0.2 and 3.5 SD of the protein, either way, in both replicates (recomputed)
Method in brief: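 Soluble protein was defined as the supernatant after 21,000xg for 90 min. It came from K562 cells at 2×10^6 cells/mL given 10 μM compound for 30 min, heated in aliquots for 3 min across 48°C-58°C, pooled, and extracted in PBS with 0.5% NP-40 at 4°C, and was quantified by TMTpro 16plex LC-MS/MS with equalised channel sums. Thermal stability against control samples, from duplicates, is reported as log2 fold change.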

The chains behind the UniProt entries cited, without tags or fusion partners. Where a name states a change or a piece, a line headed by the entry shows the natural chain unless it says otherwise.
UniProt Q96BD0: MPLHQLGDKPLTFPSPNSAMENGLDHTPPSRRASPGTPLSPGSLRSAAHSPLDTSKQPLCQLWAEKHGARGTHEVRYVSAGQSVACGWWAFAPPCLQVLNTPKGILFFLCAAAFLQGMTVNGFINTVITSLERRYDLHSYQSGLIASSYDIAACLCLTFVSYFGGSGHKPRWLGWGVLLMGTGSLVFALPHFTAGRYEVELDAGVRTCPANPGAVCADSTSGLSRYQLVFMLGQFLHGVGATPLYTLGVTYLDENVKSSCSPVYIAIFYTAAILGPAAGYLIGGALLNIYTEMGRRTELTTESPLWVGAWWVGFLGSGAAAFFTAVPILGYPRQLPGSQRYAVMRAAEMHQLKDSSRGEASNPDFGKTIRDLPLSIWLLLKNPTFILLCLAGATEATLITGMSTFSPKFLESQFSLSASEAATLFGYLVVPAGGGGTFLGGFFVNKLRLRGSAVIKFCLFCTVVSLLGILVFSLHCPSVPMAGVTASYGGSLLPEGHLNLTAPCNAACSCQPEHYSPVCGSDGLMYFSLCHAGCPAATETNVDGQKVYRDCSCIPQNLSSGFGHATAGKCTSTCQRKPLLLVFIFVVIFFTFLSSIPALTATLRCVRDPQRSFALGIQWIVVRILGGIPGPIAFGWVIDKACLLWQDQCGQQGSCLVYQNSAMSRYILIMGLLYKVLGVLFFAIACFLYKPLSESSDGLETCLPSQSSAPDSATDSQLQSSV
UniProt O00193: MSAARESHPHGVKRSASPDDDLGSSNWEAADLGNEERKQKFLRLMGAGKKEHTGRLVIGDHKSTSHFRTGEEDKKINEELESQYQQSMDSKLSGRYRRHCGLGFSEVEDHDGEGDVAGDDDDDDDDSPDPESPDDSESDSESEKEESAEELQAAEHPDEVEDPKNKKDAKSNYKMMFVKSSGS
UniProt Q8N5G0: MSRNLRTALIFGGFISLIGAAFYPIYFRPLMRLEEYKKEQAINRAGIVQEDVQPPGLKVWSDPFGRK
UniProt Q96KF7: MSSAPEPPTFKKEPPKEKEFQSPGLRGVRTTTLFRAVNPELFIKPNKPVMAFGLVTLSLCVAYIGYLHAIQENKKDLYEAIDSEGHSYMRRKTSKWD
UniProt P51532, whole entry, looked up: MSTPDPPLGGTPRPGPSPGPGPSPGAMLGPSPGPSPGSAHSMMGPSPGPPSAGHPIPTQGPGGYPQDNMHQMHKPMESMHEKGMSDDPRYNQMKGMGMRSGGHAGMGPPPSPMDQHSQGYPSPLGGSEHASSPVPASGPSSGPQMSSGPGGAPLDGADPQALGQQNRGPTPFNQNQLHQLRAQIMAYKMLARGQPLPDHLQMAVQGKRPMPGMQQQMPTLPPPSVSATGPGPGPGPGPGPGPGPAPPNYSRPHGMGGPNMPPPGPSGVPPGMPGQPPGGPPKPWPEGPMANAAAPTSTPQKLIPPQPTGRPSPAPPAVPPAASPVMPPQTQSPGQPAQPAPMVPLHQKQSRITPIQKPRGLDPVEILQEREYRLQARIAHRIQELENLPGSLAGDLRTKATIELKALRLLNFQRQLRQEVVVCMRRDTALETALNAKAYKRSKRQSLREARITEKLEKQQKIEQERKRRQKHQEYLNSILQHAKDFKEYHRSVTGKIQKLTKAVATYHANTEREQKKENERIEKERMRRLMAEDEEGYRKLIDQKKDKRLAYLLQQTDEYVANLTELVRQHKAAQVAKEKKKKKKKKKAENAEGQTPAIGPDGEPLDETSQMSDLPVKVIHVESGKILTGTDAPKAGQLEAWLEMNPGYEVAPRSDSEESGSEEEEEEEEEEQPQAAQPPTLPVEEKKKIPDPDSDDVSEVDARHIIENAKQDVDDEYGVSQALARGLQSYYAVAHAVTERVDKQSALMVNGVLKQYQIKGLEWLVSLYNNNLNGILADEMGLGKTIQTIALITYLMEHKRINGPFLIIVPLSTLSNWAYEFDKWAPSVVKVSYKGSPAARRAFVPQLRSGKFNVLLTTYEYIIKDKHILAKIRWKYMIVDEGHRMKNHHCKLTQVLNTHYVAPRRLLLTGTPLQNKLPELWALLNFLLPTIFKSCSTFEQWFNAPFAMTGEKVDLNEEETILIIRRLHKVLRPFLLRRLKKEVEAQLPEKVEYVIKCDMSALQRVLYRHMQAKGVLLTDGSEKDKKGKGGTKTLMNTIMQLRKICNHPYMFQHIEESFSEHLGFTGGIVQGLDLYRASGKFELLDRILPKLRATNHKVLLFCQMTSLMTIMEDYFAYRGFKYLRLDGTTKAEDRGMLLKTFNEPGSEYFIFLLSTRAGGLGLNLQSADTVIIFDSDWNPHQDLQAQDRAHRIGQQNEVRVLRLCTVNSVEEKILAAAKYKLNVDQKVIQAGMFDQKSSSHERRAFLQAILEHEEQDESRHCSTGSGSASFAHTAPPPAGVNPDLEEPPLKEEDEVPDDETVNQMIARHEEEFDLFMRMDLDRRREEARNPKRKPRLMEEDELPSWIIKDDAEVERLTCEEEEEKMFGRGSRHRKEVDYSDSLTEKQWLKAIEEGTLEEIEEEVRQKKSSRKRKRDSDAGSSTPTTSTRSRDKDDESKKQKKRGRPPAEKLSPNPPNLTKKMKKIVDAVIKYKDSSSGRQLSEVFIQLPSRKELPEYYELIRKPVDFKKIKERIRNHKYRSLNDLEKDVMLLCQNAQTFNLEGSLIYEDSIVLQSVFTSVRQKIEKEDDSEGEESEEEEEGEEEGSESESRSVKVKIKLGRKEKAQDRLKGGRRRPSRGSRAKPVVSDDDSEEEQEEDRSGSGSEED
UniProt Q9UMY4: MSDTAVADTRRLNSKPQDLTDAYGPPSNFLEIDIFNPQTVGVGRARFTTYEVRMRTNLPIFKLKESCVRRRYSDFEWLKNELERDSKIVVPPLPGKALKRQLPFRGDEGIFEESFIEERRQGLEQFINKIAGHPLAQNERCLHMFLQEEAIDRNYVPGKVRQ
UniProt Q9H2G2: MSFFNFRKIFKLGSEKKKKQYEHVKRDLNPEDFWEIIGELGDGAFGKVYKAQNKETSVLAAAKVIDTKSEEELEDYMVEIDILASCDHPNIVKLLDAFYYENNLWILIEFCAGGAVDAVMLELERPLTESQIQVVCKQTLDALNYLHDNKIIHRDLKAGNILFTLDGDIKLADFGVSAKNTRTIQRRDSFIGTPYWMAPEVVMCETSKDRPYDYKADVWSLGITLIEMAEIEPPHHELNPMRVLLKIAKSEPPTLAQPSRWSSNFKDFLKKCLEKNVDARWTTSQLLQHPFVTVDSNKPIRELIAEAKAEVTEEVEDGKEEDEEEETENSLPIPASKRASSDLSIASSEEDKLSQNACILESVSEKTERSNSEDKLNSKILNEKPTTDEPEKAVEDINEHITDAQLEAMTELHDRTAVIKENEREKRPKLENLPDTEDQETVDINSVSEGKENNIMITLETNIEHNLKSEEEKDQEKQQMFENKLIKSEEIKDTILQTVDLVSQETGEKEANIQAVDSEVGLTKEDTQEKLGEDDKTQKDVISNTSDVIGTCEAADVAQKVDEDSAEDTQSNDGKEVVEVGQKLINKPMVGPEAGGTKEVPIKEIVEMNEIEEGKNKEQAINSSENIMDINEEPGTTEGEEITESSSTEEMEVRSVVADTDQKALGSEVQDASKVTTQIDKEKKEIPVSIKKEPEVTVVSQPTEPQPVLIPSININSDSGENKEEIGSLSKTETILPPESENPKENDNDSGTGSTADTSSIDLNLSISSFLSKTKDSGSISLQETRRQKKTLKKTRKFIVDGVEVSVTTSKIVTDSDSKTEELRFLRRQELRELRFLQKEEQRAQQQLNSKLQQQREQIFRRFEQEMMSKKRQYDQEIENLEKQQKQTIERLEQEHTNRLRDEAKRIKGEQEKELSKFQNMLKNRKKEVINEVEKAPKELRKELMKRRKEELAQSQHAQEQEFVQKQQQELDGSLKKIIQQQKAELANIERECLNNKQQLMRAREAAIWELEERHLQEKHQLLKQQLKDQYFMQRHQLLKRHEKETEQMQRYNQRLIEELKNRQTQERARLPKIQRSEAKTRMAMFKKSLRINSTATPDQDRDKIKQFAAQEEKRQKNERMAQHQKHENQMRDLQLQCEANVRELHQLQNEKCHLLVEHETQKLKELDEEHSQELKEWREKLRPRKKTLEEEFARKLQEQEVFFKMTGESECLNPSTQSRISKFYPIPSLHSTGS
UniProt O60641: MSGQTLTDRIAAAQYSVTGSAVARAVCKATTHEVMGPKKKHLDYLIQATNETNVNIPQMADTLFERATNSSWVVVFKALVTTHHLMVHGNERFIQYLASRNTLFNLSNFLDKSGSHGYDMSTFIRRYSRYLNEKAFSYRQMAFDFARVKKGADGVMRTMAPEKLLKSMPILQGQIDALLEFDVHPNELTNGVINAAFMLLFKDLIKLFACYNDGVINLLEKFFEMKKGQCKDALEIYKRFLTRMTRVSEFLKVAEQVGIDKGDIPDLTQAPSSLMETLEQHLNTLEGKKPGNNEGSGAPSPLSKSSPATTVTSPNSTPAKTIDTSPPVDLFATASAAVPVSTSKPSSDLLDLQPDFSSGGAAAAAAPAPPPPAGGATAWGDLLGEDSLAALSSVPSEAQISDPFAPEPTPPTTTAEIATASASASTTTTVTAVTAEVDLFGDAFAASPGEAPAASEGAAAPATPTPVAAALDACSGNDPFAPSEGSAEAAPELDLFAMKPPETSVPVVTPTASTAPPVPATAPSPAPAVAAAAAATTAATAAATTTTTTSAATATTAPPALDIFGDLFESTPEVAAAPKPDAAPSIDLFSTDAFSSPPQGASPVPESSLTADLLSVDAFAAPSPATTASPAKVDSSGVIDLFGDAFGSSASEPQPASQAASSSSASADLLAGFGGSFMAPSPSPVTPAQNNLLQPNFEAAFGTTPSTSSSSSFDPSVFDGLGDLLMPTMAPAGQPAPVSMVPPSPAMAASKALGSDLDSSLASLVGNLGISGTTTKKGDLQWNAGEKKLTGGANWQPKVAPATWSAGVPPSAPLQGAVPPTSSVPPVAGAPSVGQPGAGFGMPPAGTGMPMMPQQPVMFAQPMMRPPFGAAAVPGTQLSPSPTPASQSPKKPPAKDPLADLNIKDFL
UniProt P57768: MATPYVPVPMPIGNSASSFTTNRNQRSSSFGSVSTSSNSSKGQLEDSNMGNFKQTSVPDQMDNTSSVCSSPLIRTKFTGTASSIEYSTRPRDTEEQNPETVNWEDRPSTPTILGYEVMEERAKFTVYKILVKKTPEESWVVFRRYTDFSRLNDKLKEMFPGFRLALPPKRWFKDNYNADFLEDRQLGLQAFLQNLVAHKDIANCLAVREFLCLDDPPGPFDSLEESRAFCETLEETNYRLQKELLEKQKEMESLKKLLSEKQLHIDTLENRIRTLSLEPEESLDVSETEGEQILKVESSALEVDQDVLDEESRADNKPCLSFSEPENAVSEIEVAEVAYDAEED
UniProt O14508, whole entry, looked up: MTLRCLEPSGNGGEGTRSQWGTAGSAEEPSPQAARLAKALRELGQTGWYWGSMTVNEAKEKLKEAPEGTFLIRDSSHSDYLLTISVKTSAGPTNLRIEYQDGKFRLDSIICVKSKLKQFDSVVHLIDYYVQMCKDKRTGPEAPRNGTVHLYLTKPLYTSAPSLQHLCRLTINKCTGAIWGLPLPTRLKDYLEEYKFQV
UniProt Q13596, whole entry, looked up: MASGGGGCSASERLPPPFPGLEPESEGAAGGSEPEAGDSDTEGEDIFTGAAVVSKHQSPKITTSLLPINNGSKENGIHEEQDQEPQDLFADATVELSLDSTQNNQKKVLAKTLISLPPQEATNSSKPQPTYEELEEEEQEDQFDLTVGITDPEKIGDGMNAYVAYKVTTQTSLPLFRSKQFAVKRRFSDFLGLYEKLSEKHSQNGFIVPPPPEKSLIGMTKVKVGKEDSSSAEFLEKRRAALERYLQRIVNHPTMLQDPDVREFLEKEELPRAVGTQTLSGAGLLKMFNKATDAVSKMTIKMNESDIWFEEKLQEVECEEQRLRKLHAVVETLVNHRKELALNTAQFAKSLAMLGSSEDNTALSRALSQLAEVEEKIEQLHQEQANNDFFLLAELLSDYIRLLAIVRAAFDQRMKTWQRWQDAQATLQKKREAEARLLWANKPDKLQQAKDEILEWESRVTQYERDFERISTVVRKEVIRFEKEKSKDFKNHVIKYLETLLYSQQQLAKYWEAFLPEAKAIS
UniProt Q99717: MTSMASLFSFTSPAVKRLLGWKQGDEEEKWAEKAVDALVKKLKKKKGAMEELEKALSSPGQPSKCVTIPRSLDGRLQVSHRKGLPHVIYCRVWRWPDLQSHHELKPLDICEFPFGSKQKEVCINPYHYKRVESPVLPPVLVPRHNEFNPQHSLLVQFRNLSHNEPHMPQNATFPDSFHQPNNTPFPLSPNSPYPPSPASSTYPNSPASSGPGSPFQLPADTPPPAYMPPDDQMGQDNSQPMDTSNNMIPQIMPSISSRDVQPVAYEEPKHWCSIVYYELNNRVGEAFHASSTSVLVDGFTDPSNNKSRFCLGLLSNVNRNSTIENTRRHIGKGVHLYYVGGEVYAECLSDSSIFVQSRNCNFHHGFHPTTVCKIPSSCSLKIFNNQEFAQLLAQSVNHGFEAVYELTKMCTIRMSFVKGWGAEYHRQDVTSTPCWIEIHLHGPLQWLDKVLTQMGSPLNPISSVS

log2 fold change, inactive:
SORBS1 isoform 12 (UniProt Q9BX66) -0.009
SLCO4A1 (UniProt Q96BD0) -0.15
SON isoform 9 (UniProt P18583) 0.062
SMAP (UniProt O00193) -0.027
SORD (UniProt Q00796) 0.018
SPAG7 (UniProt O75391) 0.025
SMIM20 isoform 2 (UniProt Q8N5G0) 0.156
SMIM8 (UniProt Q96KF7) 0.004
SNX8 (UniProt Q9Y5X2) 0.016
SMARCA4 (UniProt P51532) 0.033
SNX12 isoform 1 (UniProt Q9UMY4) 0.008
SMYD2 (UniProt Q9NRG4) -0.136
SLK isoform 2 (UniProt Q9H2G2) 0.004
SNAP91 (UniProt O60641) -0.068
SLC7A6OS (UniProt Q96CW6) -0.13
SNX16 (UniProt P57768) 0
SLC7A6 (UniProt Q92536) -0.087
SOCS2 (UniProt O14508) 0.043
SNX1 (UniProt Q13596) -0.028
SLC8B1 (UniProt Q6J4K2) 0.103
SMS (UniProt P52788) -0.006
SMAD5 (UniProt Q99717) -0.184
SOX7 isoform 2 (UniProt Q9BT81) -0.164

For convenience, some entries already given.
log2 fold change, inactive:
SMAP (UniProt O00193) -0.027
SORD (UniProt Q00796) 0.018
